Source: patent US11427783B2, “Perfuming compositions” (Firmenich SA, priority 2016, dated 2022)
At least one structure is not confirmed: it was looked up by name or label, or the drawing left a doubt.

Assay: Volatility of perfuming compounds in air
Type: physicochemical
Details: Table 8, perfuming compounds having a sweet note

SMILES: CCOC(C)=O [ETHYL ACETATE]
- Volatility (μg/l air): 404705.61 μg/l air
